No constants are given. Whether binding was seen depends on the method and setting. Some binding calls cover weakened binding; strength is not graded here.
What was measured:
[1] = target: CD123全长蛋白 (细胞膜上CD123) (UniProt P26951); assay: flow cytometry on Raji cells, antibody titration
[2] = target: CD123全长蛋白 (细胞膜上CD123) (UniProt P26951); assay: flow cytometry on 293 cells transfected with full-length CD123

Protein sequences, listed by entry. Tags and fused reporters are not part of them. Residues count along the entry.
UniProt P26951, residues 19-378: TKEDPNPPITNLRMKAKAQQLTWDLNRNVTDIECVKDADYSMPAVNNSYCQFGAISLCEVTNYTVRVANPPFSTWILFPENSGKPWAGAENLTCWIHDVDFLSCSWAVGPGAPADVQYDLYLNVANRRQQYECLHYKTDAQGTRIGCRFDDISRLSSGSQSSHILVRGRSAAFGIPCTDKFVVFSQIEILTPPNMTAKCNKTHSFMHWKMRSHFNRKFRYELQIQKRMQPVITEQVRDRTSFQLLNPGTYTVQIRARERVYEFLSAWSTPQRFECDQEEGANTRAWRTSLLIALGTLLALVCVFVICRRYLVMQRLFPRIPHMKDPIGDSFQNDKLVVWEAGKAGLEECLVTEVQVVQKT

binding [1] | binding [2] | Binder
binds | binds | 命名为5D3的兔重组单克隆抗体 (antibody, V domains shown) VH: GGAEGGLVKPGGSLELCCKASGFSLSNLRVNWVRQAPGKGLEWIGCIISDSSGTTSYASWVNGRFTLSRDIDQNTGCLQLNSLTVADTAMYYCASRVNITSYDLSLWGQGTLVTVSS VL: AAVLTQTPSPVSAAVGGTVSISCQSSKSVYNNKWLSWFQQKPGQPPKLLIYSASTLASGVPSRFSGSGSGTDFTLTISDVQCDDAATYYCAGGYSGSSDTYSFGGGTEVVVK
binds | binds | 命名为1E6的兔重组单克隆抗体 (antibody, V domains shown) VH: QSVEESGGRLVTPGTPLTLACTVSGFDISSYSMSWVRQAPGKGLEWIGSGIIGGSTYYASWAKGRFTISKTSTTVDLKITSPTTEDTATYFCARFAGTSSTDYYDLWGQGTLVTVSS VL: TQTPSSVEAAVGGTVTIKCQASQSIDSYLAWYQQKPGQPPKLLIYDTSTLASGVSSRFKGSGSGTQFTLTISDLECADAATYYCQNYWIITTFGFGGGTEVVVK
